# Results from the supplement of paper PMC10338343.
# ± gives the standard deviation. This is a selection; strong and weak results do not stand in their true shares. Many of these values have a large error. This is one part of the list.
# How the values were obtained:
# [1] = test system: MILI (PIWIL2) piRISC loaded with L1MC piRNA (26 nt); assay: pre-steady-state target cleavage rate (min^-1); higher = faster piRNA-guided slicing of the target; settings: guide: L1MC piRNA 5'p-UAACUAAAUACUAUGCAAGCUGUAGG
# Procedure, shortened: (§1)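 Cleave-'n-Seq: 1 nM active affinity-purified piRISC with one synthetic guide and 0.1 nM transcribed, DNA-blocked target RNA library were mixed, with or without 500 nM GTSF1 partner protein, in HEPES–potassium acetate buffer at 33 °C for 0–8 or 0–960 min. Uncleaved targets were sequenced and normalised to depth and to weakly complementary targets, three trials were pooled, and k3 was capped at 0.0001 min^-1. The pre-steady-state cleavage rate was fitted […].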
# [2] = test system: EfPiwi piRISC loaded with L1MC piRNA (26 nt); assay: pre-steady-state target cleavage rate (min^-1); guide: L1MC piRNA 5'p-UAACUAAAUACUAUGCAAGCUGUAGG; MIWI and MILI are mouse PIWI proteins and EfPiwi is from a freshwater sponge; tags in brackets are library labels; higher = faster piRNA-guided slicing of the target
# Procedure, shortened: as §1
# [3] = auxiliary factor: none (no GTSF1)
# [4] = auxiliary factor: 500 nM Ephydatia muelleri Gtsf1
# [5] = auxiliary factor: 500 nM mouse GTSF1
# [6] = auxiliary factor: none (no Gtsf1)
Sequence,"pre-steady-state target cleavage rate [1, 3]","pre-steady-state target cleavage rate [2, 4]","pre-steady-state target cleavage rate [1, 5]","pre-steady-state target cleavage rate [2, 6]"
UCCUGGAACUGCUUGCAUAGUAUUUACAAA,0.00101 ± 0.007,0.0018 ± 0.0024,–,–
UCCUGCUACAGCAAGCAUAGUAUUUAGUUA,–,0.0176 ± 0.0059,0.325 ± 0.022,–
UCCUGGAACCAGCUUGCAUAGUAUUUAGUUA,–,0.0336 ± 0.0098,0.365 ± 0.032,–
UCCUGGAUCUCGUUGCAUAGUAUUUACAAA,0.00211 ± 0.0037,0.000919 ± 0.0071,–,–
UCCUGGUACAGGUUGCAUAGUAUUUAGUAA,–,0.00428 ± 0.0022,0.287 ± 0.04,–
UCCUGGAUGUCGAACGAUAGAUUUUAGUUA,0.000236 ± 0.017,–,–,0.000477 ± 0.015
UCCUGCUACCGCUUGCAUAGUAUUUAGUUA,–,0.0156 ± 0.005,0.368 ± 0.035,–
UCCUGGUUCAGCUUGCAUAGUAUUUUCAAA,0.00223 ± 0.0034,0.00275 ± 0.0031,–,–
UCCUGGAACAGCUUGCAUAGUAUUUAGUUUA,–,0.0245 ± 0.0071,0.321 ± 0.018,–
UCCUGGAUGUCGAACGUUAGUUUAUAGUUA,0.000247 ± 0.019,–,–,< 0.0001
UCCUCCUACAGCUUGCAUAGUAUUAACUUA,0.00174 ± 0.0035,0.00459 ± 0.0029,–,–
UCCUGGAUGAGCUUGCAUAGUUAUUACAAA,0.000399 ± 0.014,–,–,0.000275 ± 0.024
UCCUGCUACAGCUUGCAUAGUAUUUAGUAA,0.00285 ± 0.003,0.00553 ± 0.0022,–,–
UCCUCCUACAGCUUGCAUAGUUUUUAGUAA,0.00267 ± 0.0027,0.005 ± 0.0022,–,–
UCCUGGAUGUCGAUGCAUAGUAUUUCAGUUA,0.00136 ± 0.0057,0.000323 ± 0.014,–,–
UCCUGGAAGUCCUUGCAUAGUAUUUAGUAA,0.00214 ± 0.003,0.00346 ± 0.0028,–,–
UCCUGCUACAGCUUGCAUAGUAAAAUCAAA,0.000953 ± 0.0064,0.00286 ± 0.0033,–,–
UCCUCCAACAGCUUGCAUAGAAUUUAGUUA,0.00235 ± 0.0025,–,–,0.00116 ± 0.0055
UCCUGGAUGUCGAUCCAAAGUAUUUAGUUA,0.000158 ± 0.017,0.000709 ± 0.0089,–,–
UCCUCCUACAGCUUGCAUAGUAUUUAGUCA,–,0.00693 ± 0.003,0.303 ± 0.025,–
UCCUGGUACAGCUUGCAUACUAUUUUGUUA,0.00143 ± 0.0077,0.00127 ± 0.0042,–,–
UCCUGGAACAGUUUGCAUAGUAUUUAGUUA,–,–,0.285 ± 0.014,0.00323 ± 0.0046
UCCUGGAACAGCUUGCAUAGUAUUUAGAUUA,0.00209 ± 0.0049,0.00539 ± 0.002,–,–
UCCUCCUACAGCUUGCAUAGUAUUGAGUUA,0.00254 ± 0.0029,0.00534 ± 0.002,–,–
UCCUGCUACAGCUUGCAUACUAAUUAGUUA,0.00241 ± 0.0031,–,–,0.000572 ± 0.014
UCCUGCUACAGCUUCCAUAGUAUUUACUUA,0.00045 ± 0.011,0.00131 ± 0.0038,–,–
UCCUGGAUGUGCUUGCAUAGUAUUUAGCUUA,0.00274 ± 0.0033,–,–,0.000445 ± 0.021
UCCUGGAUGAGCUUGCAUAGUAUUUACAAA,0.00112 ± 0.0048,–,–,0.000614 ± 0.012

Sequence,"pre-steady-state target cleavage rate [1, 3]","pre-steady-state target cleavage rate [2, 4]","pre-steady-state target cleavage rate [1, 5]","pre-steady-state target cleavage rate [2, 6]"
UCCUGGAUGAGCUUGCAUAGUAUUAUGUUA,0.0019 ± 0.0047,0.000918 ± 0.0061,–,–
UCCUGGAUCACCUUGCAUAGUAUUUAGUAA,0.00253 ± 0.003,0.00344 ± 0.0031,–,–
UCCUGGAUGUGCUUGCAUAGUAUUUACUUA,0.00229 ± 0.0033,0.00181 ± 0.0034,–,–
UCCUGGAUGUCGAACGUUAGUAUUUAGUUUA,–,0.000485 ± 0.011,0.000162 ± 0.023,–
UCCUGCUACAGCAUUGCAUAGUAUUUAGUUA,–,0.00946 ± 0.0029,0.286 ± 0.02,–
UCCUGGUACAGCUUGCAUAGUAAUUAGAAA,0.00129 ± 0.0049,0.0016 ± 0.0049,–,–
UCCUGGAUCAGCUUGCAUAGUAUUAUCUUA,0.00188 ± 0.003,0.00165 ± 0.0028,–,–
UCCUCCUACAGCUUAGCAUAGUAUUUAGUUA,–,0.0919 ± 0.025,0.314 ± 0.017,–
UCCUGGAACAGCUUGCAUAGUUUUUAGUAA,0.00209 ± 0.0034,0.00724 ± 0.0029,–,–
UCCUCCUACAGCUUGCAUAGUUUUUUGUUA,0.00251 ± 0.003,0.00441 ± 0.0026,–,–
UCCUGCUACAGCUAGCAUAGUAAUUAGUUA,–,0.00598 ± 0.0018,0.284 ± 0.026,–
UCCUGGAUGUCGAACGUAUCUGUUUAGUUA,0.000212 ± 0.017,0.000195 ± 0.027,–,–
UCCUCCUACAGCUUGCAUAGUUAUUAGUAA,0.00147 ± 0.0035,0.00524 ± 0.0028,–,–
UCCUCGUACAGCUAGCAUAGUAUUUAGUUA,–,0.0402 ± 0.01,0.281 ± 0.012,–
UCCUGGAACUGCUUGCAUAGUAUUUUGUUA,0.0028 ± 0.0028,0.00426 ± 0.0026,–,–
UCCUGGAUGUCGAUGCAUAGUUUUAAGUUA,0.00158 ± 0.0044,0.000249 ± 0.018,–,–
UCCUGGAUGAGCUUGCAUAGUAUUUUGUAA,0.000804 ± 0.0089,0.00129 ± 0.0048,–,–
UCCUGGAUCUGCUUGCAUAGUAUUUAGAAA,0.0016 ± 0.0044,0.00228 ± 0.0024,–,–
UCCUGGUAGAGCUUGCAUACUAUUUAGUUA,0.00225 ± 0.0034,0.00236 ± 0.0036,–,–
UCCUGGAACACCUUGCAUAGUAUUUUGUUA,0.00167 ± 0.0055,0.00343 ± 0.0029,–,–
UCCUGGAUCACCUUGCAUAGUAUUUACUUA,0.00232 ± 0.004,0.000992 ± 0.0061,–,–
UCCUGGAUCAGCUUGCAUAGUAUUAAGUAA,0.00253 ± 0.0031,0.00602 ± 0.0026,–,–
UCCUGGAUGUCGAACGUUAGUAUUAAGAUA,0.000237 ± 0.017,0.00022 ± 0.02,–,–
UCCUGGAUCAGCUUGCAUUGAAUUUAGUUA,0.00204 ± 0.0026,0.000504 ± 0.0063,–,–
UCCUCCUACAGCUUGCAUAGUAUUAUCUUA,0.0019 ± 0.0044,0.00351 ± 0.0027,–,–
UCCUGGUACAGCUUGCAUAGUAUGUAGUUA,0.0014 ± 0.0069,0.00155 ± 0.0039,–,–
UCCUCCAUCAGCUUGCAUAGUAUUUACAAA,0.001 ± 0.0048,0.00282 ± 0.0024,–,–

# Laid out differently: results already given.
Sequence	pre-steady-state target cleavage rate [1, 3]	pre-steady-state target cleavage rate [2, 4]	pre-steady-state target cleavage rate [1, 5]	pre-steady-state target cleavage rate [2, 6]
UCCUCCUACAGCUUGCAUAGUUUUUAGUAA	0.00267 ± 0.0027	0.005 ± 0.0022	–	–
UCCUGGAUGUCGAUGCAUAGUAUUUCAGUUA	0.00136 ± 0.0057	0.000323 ± 0.014	–	–
UCCUGGAAGUCCUUGCAUAGUAUUUAGUAA	0.00214 ± 0.003	0.00346 ± 0.0028	–	–
UCCUGCUACAGCUUGCAUAGUAAAAUCAAA	0.000953 ± 0.0064	0.00286 ± 0.0033	–	–
UCCUCCAACAGCUUGCAUAGAAUUUAGUUA	0.00235 ± 0.0025	–	–	0.00116 ± 0.0055
UCCUGGAUGUCGAUCCAAAGUAUUUAGUUA	0.000158 ± 0.017	0.000709 ± 0.0089	–	–
UCCUCCUACAGCUUGCAUAGUAUUUAGUCA	–	0.00693 ± 0.003	0.303 ± 0.025	–
UCCUGGUACAGCUUGCAUACUAUUUUGUUA	0.00143 ± 0.0077	0.00127 ± 0.0042	–	–
UCCUGGAACAGUUUGCAUAGUAUUUAGUUA	–	–	0.285 ± 0.014	0.00323 ± 0.0046
UCCUGGAACAGCUUGCAUAGUAUUUAGAUUA	0.00209 ± 0.0049	0.00539 ± 0.002	–	–
UCCUCCUACAGCUUGCAUAGUAUUGAGUUA	0.00254 ± 0.0029	0.00534 ± 0.002	–	–
UCCUGCUACAGCUUGCAUACUAAUUAGUUA	0.00241 ± 0.0031	–	–	0.000572 ± 0.014
UCCUGCUACAGCUUCCAUAGUAUUUACUUA	0.00045 ± 0.011	0.00131 ± 0.0038	–	–
UCCUGGAUGUGCUUGCAUAGUAUUUAGCUUA	0.00274 ± 0.0033	–	–	0.000445 ± 0.021
UCCUGGAUGAGCUUGCAUAGUAUUUACAAA	0.00112 ± 0.0048	–	–	0.000614 ± 0.012
UCCUGGAUGAGCUUGCAUAGUAUUAUGUUA	0.0019 ± 0.0047	0.000918 ± 0.0061	–	–
